Data on one substance can be found in patent US20080161232A1 (JERINI AG, priority 2005, published 2008).

The nature of the data set: general procedure: Fmoc solid-phase peptide synthesis; tritylchloride resin or Wang resin (C-terminal acids); Fmoc-Rink amide resin (C-terminal amides); HBTU/DIPEA. The note with it: whole synthesis, scale 200 mg resin.

Non-standard residues stand in square brackets, D forms with d. Bta = N[C@@H](Cc1csc2ccccc12)C(=O)O; dCha = N[C@H](CC1CCCCC1)C(=O)O; Orn = NCCC[C@H](N)C(=O)O; Aze = O=C(O)[C@@H]1CCN1

“Ac-F[Orn][Aze][dCha][Bta]F-NHMe (SMILES CNC(=O)[C@H](Cc1ccccc1)NC(=O)[C@H](Cc1csc2ccccc12)NC(=O)[C@@H](CC1CCCCC1)NC(=O)[C@@H]1CCN1C(=O)[C@H](CCCN)NC(=O)[C@H](Cc1ccccc1)NC(C)=O)” showed an isolated mass of 10.0 mg.
